Laboratory results published in patent US9469650B2, “Melampomagnolide B derivatives” (BOARD OF TRUSTEES OF THE UNIVERSITY OF ARKANSAS, priority 2013, dated 2016).
At least one read-out could not be matched to a standard name with certainty.

How the values were obtained:
LOX IMVI = assay: panel of 60 human tumor cell lines, growth inhibition (Melanoma)
M14 = assay: as above
SK-MEL-2 = assay: as above
SK-MEL-28 = assay: as above
SF-295 = assay: panel of 60 human tumor cell lines, growth inhibition (CNS Cancer)
SNB-75 = assay: as above
COLO 205 = assay: panel of 60 human tumor cell lines, growth inhibition (Colon Cancer)
HCC-2998 = assay: as above
HCT-116 = assay: as above
786-0 = assay: panel of 60 human tumor cell lines, growth inhibition (Renal Cancer)
A498 = assay: as above
RXF 393 = assay: as above
SN12C = assay: as above
TK-10 = assay: as above
HS 578T = assay: panel of 60 human tumor cell lines, growth inhibition (Breast Cancer); settings: HS 578T
T-47D = assay: as above
MDA-MB-468 = assay: as above
OVCAR-5 = assay: panel of 60 human tumor cell lines, growth inhibition (Ovarian Cancer)
A549/ATCC = assay: panel of 60 human tumor cell lines, growth inhibition (Non-Small Cell Lung Cancer)
HOP-62 = assay: as above
NCI-H322M = assay: as above

SMILES: C=C1C(=O)O[C@H]2[C@H]1CC/C(COC(=O)NCCN1CCOCC1)=C\CC[C@@]1(C)O[C@@H]21 [JVM 57, ((1aR,7aS,10aS,10bS,E)-1a-methyl-8-methylene-9-oxo-1a,2,3,6,7,7a,8,9,10a,10b-decahydrooxireno[2′,3′:9,10]-cyclodeca[1,2-b]furan-5-yl)-methyl(2-morpholinoethyl)carbamate]
- Percent Growth (LOX IMVI; Log10 Concentration −4.0): −88%
- Percent Growth (LOX IMVI; Log10 Concentration −5.0): 29%
- Percent Growth (LOX IMVI; Log10 Concentration −6.0): 97%
- Percent Growth (LOX IMVI; Log10 Concentration −7.0): 100%
- Percent Growth (LOX IMVI; Log10 Concentration −8.0): 102%
- Percent Growth (M14; Log10 Concentration −4.0): −79%
- Percent Growth (M14; Log10 Concentration −5.0): 45%
- Percent Growth (M14; Log10 Concentration −6.0): 96%
- Percent Growth (M14; Log10 Concentration −7.0): 102%
- Percent Growth (M14; Log10 Concentration −8.0): 100%
- Percent Growth (SK-MEL-2; Log10 Concentration −4.0): −76%
- Percent Growth (SK-MEL-2; Log10 Concentration −5.0): 67%
- Percent Growth (SK-MEL-2; Log10 Concentration −6.0): 111%
- Percent Growth (SK-MEL-2; Log10 Concentration −7.0): 116%
- Percent Growth (SK-MEL-2; Log10 Concentration −8.0): 112%
- Percent Growth (SK-MEL-28; Log10 Concentration −4.0): −100%
- Percent Growth (SK-MEL-28; Log10 Concentration −5.0): 53%
- Percent Growth (SK-MEL-28; Log10 Concentration −6.0): 94%
- Percent Growth (SK-MEL-28; Log10 Concentration −7.0): 93%
- Percent Growth (SK-MEL-28; Log10 Concentration −8.0): 94%
- Percent Growth (SF-295; Log10 Concentration −4.0): 50%
- Percent Growth (SF-295; Log10 Concentration −5.0): 98%
- Percent Growth (SF-295; Log10 Concentration −6.0): 99%
- Percent Growth (SF-295; Log10 Concentration −7.0): 95%
- Percent Growth (SF-295; Log10 Concentration −8.0): 97%
- Percent Growth (SNB-75; Log10 Concentration −4.0): 4%
- Percent Growth (SNB-75; Log10 Concentration −5.0): 69%
- Percent Growth (SNB-75; Log10 Concentration −6.0): 77%
- Percent Growth (SNB-75; Log10 Concentration −7.0): 69%
- Percent Growth (SNB-75; Log10 Concentration −8.0): 80%
- Percent Growth (COLO 205; Log10 Concentration −4.0): −66%
- Percent Growth (COLO 205; Log10 Concentration −5.0): 47%
- Percent Growth (COLO 205; Log10 Concentration −6.0): 106%
- Percent Growth (COLO 205; Log10 Concentration −7.0): 102%
- Percent Growth (COLO 205; Log10 Concentration −8.0): 103%
- Percent Growth (HCC-2998; Log10 Concentration −4.0): −75%
- Percent Growth (HCC-2998; Log10 Concentration −5.0): 102%
- Percent Growth (HCC-2998; Log10 Concentration −6.0): 103%
- Percent Growth (HCC-2998; Log10 Concentration −7.0): 104%
- Percent Growth (HCC-2998; Log10 Concentration −8.0): 103%
- Percent Growth (HCT-116; Log10 Concentration −4.0): −87%
- Percent Growth (HCT-116; Log10 Concentration −5.0): 3%
- Percent Growth (HCT-116; Log10 Concentration −6.0): 98%
- Percent Growth (HCT-116; Log10 Concentration −7.0): 100%
- Percent Growth (HCT-116; Log10 Concentration −8.0): 101%
- Percent Growth (786-0; Log10 Concentration −4.0): −82%
- Percent Growth (786-0; Log10 Concentration −5.0): 58%
- Percent Growth (786-0; Log10 Concentration −6.0): 102%
- Percent Growth (786-0; Log10 Concentration −7.0): 106%
- Percent Growth (786-0; Log10 Concentration −8.0): 105%
- Percent Growth (A498; Log10 Concentration −4.0): −26%
- Percent Growth (A498; Log10 Concentration −5.0): 81%
- Percent Growth (A498; Log10 Concentration −6.0): 83%
- Percent Growth (A498; Log10 Concentration −7.0): 89%
- Percent Growth (A498; Log10 Concentration −8.0): 91%
- Percent Growth (RXF 393; Log10 Concentration −4.0): −86%
- Percent Growth (RXF 393; Log10 Concentration −5.0): 7%
- Percent Growth (RXF 393; Log10 Concentration −6.0): 89%
- Percent Growth (RXF 393; Log10 Concentration −7.0): 92%
- Percent Growth (RXF 393; Log10 Concentration −8.0): 89%
- Percent Growth (SN12C; Log10 Concentration −4.0): −28%
- Percent Growth (SN12C; Log10 Concentration −5.0): 79%
- Percent Growth (SN12C; Log10 Concentration −6.0): 96%
- Percent Growth (SN12C; Log10 Concentration −7.0): 94%
- Percent Growth (SN12C; Log10 Concentration −8.0): 97%
- Percent Growth (TK-10; Log10 Concentration −4.0): −96%
- Percent Growth (TK-10; Log10 Concentration −5.0): 16%
- Percent Growth (TK-10; Log10 Concentration −6.0): 100%
- Percent Growth (TK-10; Log10 Concentration −7.0): 97%
- Percent Growth (TK-10; Log10 Concentration −8.0): 101%
- Percent Growth (HS 578T; Log10 Concentration −4.0): 9%
- Percent Growth (HS 578T; Log10 Concentration −5.0): 68%
- Percent Growth (HS 578T; Log10 Concentration −6.0): 90%
- Percent Growth (HS 578T; Log10 Concentration −7.0): 91%
- Percent Growth (HS 578T; Log10 Concentration −8.0): 91%
- Percent Growth (T-47D; Log10 Concentration −4.0): −65%
- Percent Growth (T-47D; Log10 Concentration −5.0): 37%
- Percent Growth (T-47D; Log10 Concentration −6.0): 101%
- Percent Growth (T-47D; Log10 Concentration −7.0): 103%
- Percent Growth (T-47D; Log10 Concentration −8.0): 107%
- Percent Growth (MDA-MB-468; Log10 Concentration −4.0): −69%
- Percent Growth (MDA-MB-468; Log10 Concentration −5.0): 13%
- Percent Growth (MDA-MB-468; Log10 Concentration −6.0): 89%
- Percent Growth (MDA-MB-468; Log10 Concentration −7.0): 88%
- Percent Growth (MDA-MB-468; Log10 Concentration −8.0): 87%
- Percent Growth (OVCAR-5; Log10 Concentration −4.0): −65%
- Percent Growth (OVCAR-5; Log10 Concentration −5.0): 78%
- Percent Growth (OVCAR-5; Log10 Concentration −6.0): 89%
- Percent Growth (OVCAR-5; Log10 Concentration −7.0): 101%
- Percent Growth (OVCAR-5; Log10 Concentration −8.0): 95%
- Percent Growth (A549/ATCC; Log10 Concentration −4.0): 2%
- Percent Growth (A549/ATCC; Log10 Concentration −5.0): 90%
- Percent Growth (A549/ATCC; Log10 Concentration −6.0): 95%
- Percent Growth (A549/ATCC; Log10 Concentration −7.0): 95%
- Percent Growth (A549/ATCC; Log10 Concentration −8.0): 92%
- Percent Growth (HOP-62; Log10 Concentration −4.0): −48%
- Percent Growth (HOP-62; Log10 Concentration −5.0): 126%
- Percent Growth (HOP-62; Log10 Concentration −6.0): 130%
- Percent Growth (HOP-62; Log10 Concentration −7.0): 111%
- Percent Growth (HOP-62; Log10 Concentration −8.0): 107%
- Percent Growth (NCI-H322M; Log10 Concentration −4.0): 21%
- Percent Growth (NCI-H322M; Log10 Concentration −5.0): 90%
- Percent Growth (NCI-H322M; Log10 Concentration −6.0): 97%
- Percent Growth (NCI-H322M; Log10 Concentration −7.0): 99%
- Percent Growth (NCI-H322M; Log10 Concentration −8.0): 103%
